PubChem BioAssay AID652243 | Drosophila RNAi Screening Center – 2013
Screen: 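Fly genes required for human androgen receptor driven transcription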 (primary screen). System: Drosophila S2R+ cells. Knock-down reagent: long dsRNA against Drosophila genes. Timing: 72 h (48 h, then 24 h hormone). Conditions: synthetic androgen R1881 at 10 nM for 24 h. Detection: 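Firefly light from an androgen-responsive reporter and Renilla control light per well, raw and unnormalised, for each of two replicates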. Direction: firefly reporter light: higher = more light from androgen-responsive reporter; Renilla control light: higher = more constitutive control signal (cell number, transfection). Rule for the call: 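Across duplicate plates, a knock-down whose log firefly/Renilla ratio shifted a set fold down or up from the GFP/LacZ control mean was a hit; the downward cut appears as both 1.5 and 3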. Calls: active = hit: reporter lowered or raised; inactive = no hit.
The screen tested about 24,000 reagents; shown is an unselected part of those that have a named target and a result. Of all reagents, 246 (1%) got an active call. 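Plates not normalised; calls are printed but the firefly/Renilla ratio behind them is not deposited; fold cut for lowering reported inconsistently.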 Raw values are not corrected between plates. The numbers tell different reagents against one gene apart. A plus sign joins genes that one reagent is predicted to hit. Reagent sequences are not shown. Not given: the amount of reagent.

target	reagent	firefly reporter light, replicate 1	firefly reporter light, replicate 2	Renilla control light, replicate 1	Renilla control light, replicate 2	Outcome
TppII	1	6.67e5	5.64e5	1.17e6	9.13e5	inactive
CG7179	1	1.13e6	1.25e6	1.12e6	1.14e6	inactive
CG8635	1	1.09e6	1.18e6	8.75e5	1.08e6	active
CG8635	2	4.20e5	4.54e5	1.76e6	1.60e6	active
Mys45A	1	1.38e6	1.47e6	1.20e6	1.24e6	inactive
Mys45A	2	4.05e5	3.26e5	1.02e6	8.57e5	inactive
Or65b	1	1.17e5	1.45e5	3.85e5	4.02e5	inactive
CG1316	1	1.19e5	1.58e5	1.20e6	1.81e6	inactive

The list goes on; the last 2 above are carried over.
target	reagent	firefly reporter light, replicate 1	firefly reporter light, replicate 2	Renilla control light, replicate 1	Renilla control light, replicate 2	Outcome
Or65b	1	1.17e5	1.45e5	3.85e5	4.02e5	inactive
CG1316	1	1.19e5	1.58e5	1.20e6	1.81e6	inactive
CG8086	1	6.21e5	7.36e5	1.76e6	1.80e6	inactive
CG8086	2	1.80e5	2.08e5	1.38e6	1.64e6	inactive
CG8086	3	2.58e5	1.82e5	4.50e5	8.00e5	inactive
fan	1	2.29e5	1.54e5	2.30e6	1.26e6	inactive
Sxl	1	1.09e5	94679	8.92e5	6.12e5	inactive
Sxl	2	2.90e5	2.97e5	2.18e6	2.77e6	inactive
Sxl	3	1.23e6	8.84e5	2.03e6	1.57e6	inactive
Sxl	4	3.01e5	3.75e5	8.49e5	1.05e6	inactive
CG11367	1	3.88e5	8.28e5	5.30e5	7.41e5	inactive
cato	1	78733	1.28e5	8.64e5	8.64e5	inactive
CG17028	1	1.79e5	1.34e5	1.39e6	1.16e6	inactive
CG17028	2	5.45e5	4.67e5	1.06e6	1.37e6	inactive
MICU1	1	7.25e5	9.32e5	1.14e6	8.88e5	inactive
CR18275 + CG13373	1	3.45e5	2.95e5	3.45e6	3.12e6	inactive
CG31051	1	58622	68924	4.15e5	3.29e5	inactive
CG14007	1	55668	71155	8.63e5	8.44e5	inactive
